# Measured values reported in article PMC9799976.
# Results are given in words; binding and its absence hold for the method and conditions named. Binding seen in cells or lysates may run through a third protein. Here binding means that the protein was enriched with, or labelled near, the bait; the list need not be complete. Sequences can lack the tags named with a protein.
# T1: HA-tagged doublecortin (HA-DCX), bait of the pull-down (UniProt O43602)
# T1 sequence: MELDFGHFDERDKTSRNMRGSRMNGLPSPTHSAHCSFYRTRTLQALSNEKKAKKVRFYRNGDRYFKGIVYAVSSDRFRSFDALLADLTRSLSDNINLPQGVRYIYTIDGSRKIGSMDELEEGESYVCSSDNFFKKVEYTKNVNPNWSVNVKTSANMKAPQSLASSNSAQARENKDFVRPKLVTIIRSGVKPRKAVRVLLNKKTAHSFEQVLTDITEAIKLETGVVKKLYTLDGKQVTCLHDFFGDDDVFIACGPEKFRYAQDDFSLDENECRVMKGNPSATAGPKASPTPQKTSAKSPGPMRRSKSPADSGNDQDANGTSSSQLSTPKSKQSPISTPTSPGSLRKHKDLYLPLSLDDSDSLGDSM
# Molecular target: T1, HA-tagged doublecortin (HA-DCX), bait of the pull-down
# Assay: affinity purification with mass spectrometry; HA-tagged DCX immobilised on anti-HA agarose beads, mixed with protein lysates from E18 mouse brains, 16 hr at 4°C, washed four times; HA as negative control; only the target purified
row,binding,Binder
1,binds,"Tubulin alpha chain-like 3 (protein, UniProt Q3UX10 1-446) MRECLSIHIGQAGVQIGDACWELYCLEHGIQPDGFILDHQHDNLENPKVEHMNASLDTFFHETRAGKHVPRTLFMDLEPTVIDGIRVGRYHSLFHPEQLVNGKEDAANTYARGRYSVGSEVIELVLERIRKLAEQCSGLQGFLIYRSFGGGTGSGFTSLLMERLSVEYCKKIKLEFSVYPSPRISTAVVEPYNAILTTHSTIEYSDCAFMVDNEALYDICQHKLGIERPSYASINRLIAQVSSSITASLRFEGPLNVDLIEFQTNLVPYPRIHFPITALAPIISAEKAYQEQLSVSDVTASCFEVSNQLVKCDPRLGKYMACCLLYRGDVVPKDVNEAIAAMKSRTSVQFVDWCPTGFKVGINYQPPAVVPGGDLARVQRAVCMLSNTTAIVEAWARLDHKFDLMYAKKAFLHWYITEGMELGEFVEAREDLAALEKDYEEVGLSF"
2,binds,"MARCKS-related protein (protein, UniProt P28667 1-200) MGSQSSKAPRGDVTAEEAAGASPAKANGQENGHVRSNGDLTPKGEGESPPVNGTDEAAGATGDAIEPAPPSQEAEAKGEVAPKETPKKKKKFSFKKPFKLSGLSFKRNRKEGGGDSSASSPTEEEQEQGEMSACSDEGTAQEGKAAATPESQEPQAKGAEASAASKEGDTEEEAGPQAAEPSTPSGPESGPTPASAEQNE"
3,binds,"Catenin alpha-2 (protein, UniProt Q61301 1-953) MTSATSPIILKWDPKSLEIRTLTVERLLEPLVTQVTTLVNTSNKGPSGKKKGRSKKAHVLAASVEQATQNFLEKGEQIAKESQDLKEELVAAVEDVRKQGETMRIASSEFADDPCSSVKRGTMVRAARALLSAVTRLLILADMADVMRLLSHLKIVEEALEAVKNATNEQDLANRFKEFGKEMVKLNYVAARRQQELKDPHCRDEMAAARGALKKNATMLYTASQAFLRHPDVAATRANRDYVFKQVQEAIAGISSAAQATSPTDEAKGHTGIGELAAALNEFDNKIILDPMTFSEARFRPSLEERLESIISGAALMADSSCTRDDRRERIVAECNAVRQALQDLLSEYMNNTGRKEKGDPLNIAIDKMTKKTRDLRRQLRKAVMDHISDSFLETNVPLLVLIEAAKSGNEKEVKEYAQVFREHANKLVEVANLACSISNNEEGVKLVRMAATQIDSLCPQVINAALTLAARPQSKVAQDNMDVFKDQWEKQVRVLTEAVDDITSVDDFLSVSENHILEDVNKCVIALQEGDVDTLDRTAGAIRGRAARVIHIINAEMENYEAGVYTEKVLEATKLLSETVMPRFAEQVEVAIEALSANVPQPFEENEFIDASRLVYDGVRDIRKAVLMIRTPEELEDDSDFEQEDYDVRSRTSVQTEDDQLIAGQSARAIMAQLPQEEKAKIAEQVEIFHQEKSKLDAEVAKWDDSGNDIIVLAKQMCMIMMEMTDFTRGKGPLKNTSDVINAAKKIAEAGSRMDKLARAVADQCPDSACKQDLLAYLQRIALYCHQLNICSKVKAEVQNLGGELIVSGTGVQSTFTTFYEVDCDVIDGGRASQLSTHLPTCAEGAPIGSGSSDSSMLDSATSLIQAAKNLMNAVVLTVKASYVASTKYQKVYGTAAVNSPVVSWKMKAPEKKPLVKREKPEEFQTRVRRGSQKKHISPVQALSEFKAMDSF"
